# “And” between values parts separate entries of the source, which are not always exact repeats. Equal values may be shown once. This list was built around the results that the source calls inconclusive (neither active nor inactive); the mix of calls is not that of the screen. A potency beside an inconclusive call is a rough fit, not a confirmed value. The source made the active and inactive calls. Unless noted, calls come from the whole dose curve.
# Sequences of proteins named here, by UniProt entry; tags and fusion partners are left off.
# UniProt P14416, whole entry, looked up: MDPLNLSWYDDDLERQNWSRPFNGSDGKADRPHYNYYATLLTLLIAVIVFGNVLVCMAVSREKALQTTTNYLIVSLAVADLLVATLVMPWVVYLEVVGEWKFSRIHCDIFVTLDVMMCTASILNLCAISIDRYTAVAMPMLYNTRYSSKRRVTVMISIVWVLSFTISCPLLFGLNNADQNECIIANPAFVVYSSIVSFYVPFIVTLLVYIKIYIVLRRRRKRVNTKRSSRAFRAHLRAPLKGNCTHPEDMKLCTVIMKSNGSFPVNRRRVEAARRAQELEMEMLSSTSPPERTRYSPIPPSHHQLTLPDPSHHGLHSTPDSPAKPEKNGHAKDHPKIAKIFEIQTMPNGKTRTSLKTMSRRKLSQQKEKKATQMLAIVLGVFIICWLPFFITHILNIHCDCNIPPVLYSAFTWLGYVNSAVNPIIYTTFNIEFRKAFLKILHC
# Experiments:
# [1] = molecular target: Beta-2 adrenergic receptor (Homo sapiens) (UniProt P07550); assay: Adrenergic beta2 receptor (ADRB2) small molecule agonists, cell-based qHTS assay (AID 1963593); details: CHO-ADRB2 cells, cAMP HTRF, 30 min; activation: at 92.4 µM (top of the series) unless noted;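 for activation: CHO cells stably overexpressing human ADRB2; % is set by controls: 0 for no effect and ±100 for the full control effect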
# Outline: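 CHO cells stably over-expressing ADRB2 were plated overnight at 37C, then dosed with compounds plus a stimulation mix containing 100uM IBMX and 25uM Ro-20-1724 for 0.5hr at room temperature. cAMP was measured by HTRF competition, 1hr.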
# [2] = molecular target: Beta-2 adrenergic receptor (Homo sapiens) (UniProt P07550); assay: Adrenergic beta2 receptor (ADRB2) small molecule antagonists, cell-based qHTS assay (AID 1963592); details: CHO-ADRB2 cells, isoproterenol-stimulated cAMP HTRF ratio, 0.5 h; activity change, negative = inhibition: at 92.4 µM (top of the series) unless noted; note: nearly all actives have a fitted effect of over 50% in size; for activity change, negative = inhibition: % is set by controls: 0 for no effect and ±100 for the full control effect
# Outline: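 Cells (CHO, stable ADRB2 overexpression) incubated 18-20hr at 37C; compounds added from DMSO; agonist mix (1nM isoproterenol, 100uM IBMX, 25uM Ro-20-1724) added; 0.5hr RT; d2-cAMP and anti-cAMP-cryptate added; 1hr RT; 665/615 nm read.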
# [3] = molecular target: D(2) dopamine receptor (Homo sapiens) (UniProt P14416); assay: Dopamine D2 receptor (DRD2) small molecule agonists, cell-based qHTS assay (AID 1963594); details: HEK293-DRD2 cAMP HTRF, agonist mode, 30 min; activation: at 92.4 µM (top of the series) unless noted; note: nearly all actives have a fitted effect of over 35% in size; for activation: % is set by controls: 0 for no effect and ±100 for the full control effect
# Outline: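 HEK293 cells stably expressing human DRD2, pre-treated with PDE inhibitor Ro20-1724 (0.1 mM final) and compound 10 min at room temperature, then stimulated with NKH477 (200nM […]) for 30 min. cAMP read by HTRF (665/620 nm).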
# [4] = molecular target: D(2) dopamine receptor (Homo sapiens) (UniProt P14416); assay: Dopamine D2 receptor (DRD2) small molecule antagonists, cell-based qHTS assay (AID 1963595; active = well fitted inhibition curve with a large enough effect in the signal ratio in the repeat runs, with a control signal flat; inconclusive = weak or mixed curves, or effect the other way; the % refers to the signal ratio); details: HEK293-DRD2 cAMP HTRF antagonist mode; activity change, negative = inhibition: at 92.4 µM (top of the series) unless noted
# Outline: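 DRD2-HEK293; 0.1 mM Ro20-1724; cpd 10 min RT; NKH477 200 nM + quinpirole 12 nM, 30 min RT; HTRF cAMP (cAMP-d2/anti-cAMP cryptate), 665/620 nm ratio after 1 h.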
# Potency is the fitted concentration of half-maximal effect.
structure (smiles),measurement,setting,value
CCOC(C)(C)C,Potency,[1],inactive
Cc1ncc([N+](=O)[O-])n1CC(O)CCl (stereo not drawn),Potency,[1],"inconclusive: 0.75 µM [inhibitor, full curve]"
CC(C)OC(C)C,Potency,[1],inactive
CC1(C)SC(C)(C)SC(C)(C)S1,Potency,[1],inactive
CC1(C)OC[C@@H](COC(=O)CCc2ccc(OC[C@@H](O)CNCCNC(=O)N3CCOCC3)cc2)O1,"activity change, negative = inhibition",[2],inconclusive: -24.4% [at 42.5 µM]
same,Potency,[1],"inconclusive: 15 µM [inhibitor, partial curve]"
same,Potency,[3],inactive
CCC1CCCCC1,Potency,[1],inactive
COc1c(N2C[C@@H]3CCCN[C@@H]3C2)c(F)cc2c(=O)c(C(=O)O)cn(C3CC3)c12,"activity change, negative = inhibition",[2],inconclusive: 1.24% [at 42.5 µM]
same,Potency,[1],"inconclusive: 33.5 µM [falling, single point]"
same,activation,[3],inconclusive: 14.8% [at 42.5 µM]
O=C1CCCC1,activation,[1],inconclusive: 12.2% and inconclusive: -2.79%
O=Nc1ccc(NO)cc1,"activity change, negative = inhibition",[2],inconclusive: -8.18%
same,activation,[1],inconclusive: -13.6%
same,Potency,[4],"inconclusive: 31.9 µM [cytotoxic, partial curve, poor fit]"
CC(C)OC(=O)CCCCC(=O)OC(C)C,Potency,[1],"inconclusive: 0.687 µM [inhibitor, partial curve, poor fit]"
COc1ccccc1OCC1CNC(=O)O1 (stereo not drawn),activation,[1],inconclusive: -0.645% [at 42.5 µM]
O=C(C(=O)c1ccccc1)c1ccccc1,Potency,[2],inactive
same,Potency,[3],inactive
COC(=O)C(C)=O,activation,[1],inconclusive: 14.4%
Nc1ccc(NCCO)c([N+](=O)[O-])c1,Potency,[2],"inconclusive: 27.3 µM [falling, partial curve]"
same,Potency,[1],inconclusive: 27.3 µM [partial curve]
same,Potency,[3],inconclusive: 46.7 µM
same,Potency,[4],"inconclusive: 48.6 µM [cytotoxic, partial curve]"
O=C(NO)C1(NS(=O)(=O)c2ccc(Oc3ccc(F)cc3)cc2)CCOCC1,activation,[1],inconclusive: 13.1%
C=C(C)CCCC(C)CCO (stereo not drawn),Potency,[2],inactive
same,activation,[1],inconclusive: 6.69%
same,Potency,[3],inactive
C=C[Si](C)(C)O[Si](C)(C)C=C,activation,[1],inconclusive: 4.61%
CCOC(=O)/C=C/C(=O)OCC,activation,[1],inconclusive: -22.3%
O=[N+]([O-])c1ccc(Oc2ccc([N+](=O)[O-])cc2)cc1,Potency,[1],inactive
CCCCCC(C)O (stereo not drawn),Potency,[1],inactive
CC1c2ccccc2CN1NC(=O)c1ccc(Cl)c(S(N)(=O)=O)c1 (stereo not drawn),activation,[1],inconclusive: 2.43% [at 42.5 µM]
COc1ccccc1N1CCN(CCCNc2cc(=O)n(C)c(=O)n2C)CC1,Potency,[2],active: 13.3 µM
same,Potency,[1],"inconclusive: 7.5 µM [inhibitor, full curve, poor fit]"
same,Potency,[3],"inconclusive: 6.68 µM [rising, partial curve, poor fit]"
CCC(CO)CO,Potency,[1],"inconclusive: 15.4 µM [activator, full curve, poor fit]"
c1ccccc1,activation,[1],inconclusive: 46.3%
O=C(O)/C=C/c1cnc[nH]1,Potency,[2],inactive
same,activation,[1],inconclusive: -9.3%
same,Potency,[3],inactive
CC/C=C\CCCCCCCCCCOC(C)=O,Potency,[1],inactive
Cn1c(=O)c2c(ncn2CC2OCCO2)n(C)c1=O,Potency,[1],inactive
CC1=C(C(=O)O)N2C(=O)[C@@H](NC(=O)[C@H](N)c3ccc(O)cc3)[C@H]2SC1,activation,[1],inconclusive: 0.149% [at 42.5 µM]
NC(=O)CCCCC(N)=O,Potency,[1],inactive
CCN(C=O)CC,Potency,[1],inactive
C=C(C)C(=O)OCc1ccccc1,Potency,[1],inactive
FC(F)(F)c1ccc(Cl)c(Cl)c1,activation,[1],inconclusive: -39.6%
CNCCO,Potency,[1],inactive
NC/C=C/C(=O)O,Potency,[1],inactive
CCOCCC(=O)OCC,activation,[1],inconclusive: -16.2%
COS(=O)(=O)O,activation,[1],inconclusive: 3.58%
CC(=O)[O][Al][O]C(C)=O,Potency,[1],inactive
CCCCC(=O)N(C)C,activation,[1],inconclusive: -47.9%
CC(C)C=O,Potency,[1],inactive
O=P(O)(O)OP(=O)(O)O,Potency,[1],"inconclusive: 68.5 µM [inhibitor, partial curve, poor fit]"
N=C(N)c1ccc2cc(OC(=O)c3ccc(N=C(N)N)cc3)ccc2c1,Potency,[1],inactive
CCOc1c(N2CCOCC2)cnn(C)c1=O,Potency,[1],inactive
NS(=O)(=O)c1cc(C2(O)NC(=O)c3ccccc32)ccc1Cl (stereo not drawn),Potency,[1],inactive
CC(C)C(=O)c1ccccc1,activation,[1],inconclusive: -3.38%
COc1cc(C(=O)NC2CCCNC2)cc(OC)c1OC (stereo not drawn),Potency,[1],"inconclusive: 0.298 µM [inhibitor, single point]"
COc1ccccc1Oc1c(NS(=O)(=O)c2ccc(C(C)(C)C)cc2)nc(-c2ncccn2)nc1OCCO,Potency,[1],inactive
Cc1ccc(Nc2c(F)cccc2Cl)c(CC(=O)O)c1,activation,[1],inconclusive: -17.6% [at 42.5 µM]
CC(=O)CC(=O)Nc1ccc2[nH]c(=O)[nH]c2c1,Potency,[1],inactive
N[C@H](C(=O)O)[C@@H](O)c1ccc(O)c(O)c1,activation,[1],inconclusive: 10.3% [at 42.5 µM]
OCCC1CCCCN1 (stereo not drawn),activation,[1],inconclusive: -19.2%
C#CCN(C)Cc1ccccc1,activation,[1],inconclusive: -41.4%
CCC(=O)OC/C=C(\C)CCC=C(C)C,Potency,[1],inactive

# Some of the entries so far, as tab-separated lines.
structure (smiles)	measurement	setting	value
O=C(C(=O)c1ccccc1)c1ccccc1	Potency	[3]	inactive
O=C(O)/C=C/c1cnc[nH]1	activation	[1]	inconclusive: -9.3%
CC/C=C\CCCCCCCCCCOC(C)=O	Potency	[1]	inactive
NC/C=C/C(=O)O	Potency	[1]	inactive
COc1ccccc1Oc1c(NS(=O)(=O)c2ccc(C(C)(C)C)cc2)nc(-c2ncccn2)nc1OCCO	Potency	[1]	inactive
